Source: patent US20230000998A1
Results are given in words; binding and its absence hold for the method and conditions named. Some entries that bind do so weakly or less than the wild type. Sequences can lack the tags named with a protein.

Molecular target: cynomolgus TfR-1 (transferrin receptor 1), purified recombinant (cynomolgus)
Experiment: kinetic ELISA on coated recombinant TfR-1

binding: binds
B1: VNAR-Fc control conjugate (TXB4 fused to the N-terminal end of the Fc domain) (Fc fusion, not shown: a dimerising Fc or GST)
chain: ARVDQTPQTITKETGESLTINCVLRDSNCALSSTYWYRKKSGSTNEENISKGGRYVETVNSGSKSFSLRINDLTVEDSGTYRCNVVQYPQYPNYFWCDVYGDGTAVTVNA
